Results are given in words; binding and its absence hold for the method and conditions named. In cells and extracts the contact can be indirect. Some binding calls cover weakened binding; strength is not graded here.

In this assay the target is T1, interferon regulatory factor 4 (UniProt Q64287).
T1 sequence: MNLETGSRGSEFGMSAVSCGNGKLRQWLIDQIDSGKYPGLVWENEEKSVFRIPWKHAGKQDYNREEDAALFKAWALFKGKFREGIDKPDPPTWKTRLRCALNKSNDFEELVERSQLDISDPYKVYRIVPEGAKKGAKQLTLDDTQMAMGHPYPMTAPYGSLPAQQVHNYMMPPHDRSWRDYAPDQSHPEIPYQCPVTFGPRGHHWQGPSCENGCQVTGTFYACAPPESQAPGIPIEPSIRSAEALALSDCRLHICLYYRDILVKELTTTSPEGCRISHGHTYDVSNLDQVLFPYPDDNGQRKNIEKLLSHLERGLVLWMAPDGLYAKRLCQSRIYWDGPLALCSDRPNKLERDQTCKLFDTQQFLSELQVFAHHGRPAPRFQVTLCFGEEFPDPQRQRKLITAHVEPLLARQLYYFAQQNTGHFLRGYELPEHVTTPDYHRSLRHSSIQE
Description: co-IP; Peli3 and IRF4 constructs transfected into HEK293 cells; lysates after 48 h; precipitated with anti-Flag antibody, Peli3 detected with anti-HA antibody.

B1: E3 ubiquitin-protein ligase pellino homolog 3 (enzyme, UniProt Q8BXR6 1-445)
chain: MVLEGNPDVGSPRTSDLQHPGSQGSCILSCPGEEALAGEEPIKYGELIVLGYNGCLASGDKGRRRSRLALSRRPHANGVKPDVMHHISTPLVSKALSNRGQHSISFTLSRSHSVIVEYTHDSDKDMFQIGRSTENMIDFVVTDTSPGGGATEGPSAQSTISRYACRILCDRRPPYTARIYAAGFDASSNIFLGERAAKWRTPDGLMDGLTTNGVLVMHPAGGFSEDSAPGVWREISVCGNVYTLRDSRSAQQRGKLVENESNVLQDGSLIDLCGATLLWRTPAGLLRAPTLKQLEAQRQEANAARPQCPVGLSTLAFPSPARGRTAPDKQQPWVYVRCGHVHGYHGWGCRRERGPQERECPLCRLVGPYVPLWLGQEAGLCLDPGPPSHAFAPCGHVCSEKTARYWAQTPLPHGTHAFHAACPFCGAWLTGELGCVRLIFQGPLD
Regarding B1, the binding result is reported as “binds”.

For the origin of these results see paper PMC10620127.
